Test [1] concerns the target recombinant AKT1 (produced in house) (UniProt P31749). Put plainly: cross-linking; 10 µM peptide with 2.5 µM AKT1 in PBS for one hour, then 100 µM BS^3-d0/BS^3-d4 (1:1) for one hour; trypsin digest; MALDI-TOF-MS; both purified.
The next test addresses AKT1 (Homo sapiens, UniProt P31749). Put plainly: SPR; individual peptides over immobilized AKT1 at high immobilization levels (15,584 RU, peptide 1 at 1.88, 0.94 and 0.47 µM; 19,912 RU, peptide 2 at 20, 10 and 1 µM); both purified. (Surface plasmon resonance follows binding to a sensor surface in real time, without labels.)

Sequences of proteins named here, by UniProt entry; tags and fusion partners are left off.
UniProt P31749: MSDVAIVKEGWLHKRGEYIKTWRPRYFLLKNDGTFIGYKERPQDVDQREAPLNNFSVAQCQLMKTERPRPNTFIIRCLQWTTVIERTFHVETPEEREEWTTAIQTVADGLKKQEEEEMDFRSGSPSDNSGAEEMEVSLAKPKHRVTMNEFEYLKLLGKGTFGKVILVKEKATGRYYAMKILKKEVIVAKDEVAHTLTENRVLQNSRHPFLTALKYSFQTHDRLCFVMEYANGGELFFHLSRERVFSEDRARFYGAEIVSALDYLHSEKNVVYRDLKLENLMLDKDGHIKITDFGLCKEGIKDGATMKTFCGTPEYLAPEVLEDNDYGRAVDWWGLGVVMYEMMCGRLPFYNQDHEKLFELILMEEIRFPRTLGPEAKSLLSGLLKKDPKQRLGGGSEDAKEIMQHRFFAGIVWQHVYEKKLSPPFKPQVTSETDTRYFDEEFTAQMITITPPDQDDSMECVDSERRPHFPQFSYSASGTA

Results are given in words; binding and its absence hold for the method and conditions named. Some binding calls cover weakened binding; strength is not graded here.

Turning to FRGWAHIFFGPHVIYRGGSG [peptide 2], the binding entry was “binds” in test [1] and “binds weakly” with AKT1.
For AHKVVPQRQIRHAYNRYGSG [peptide 1], in that order: “binds” and “binds weakly”.

Values taken from article PMC2873402, “Discovery of High-Affinity Protein Binding Ligands – Backwards” (PLoS ONE, 2010).
